Experimental data published in article PMC11624282.
Construct, isoform or probe ends are uncertain for at least one entry. At least one verdict was read from the data and is not stated in words by the source.

By UniProt entry, the sequences of proteins in these tests, tags left out.
UniProt P09874, whole entry: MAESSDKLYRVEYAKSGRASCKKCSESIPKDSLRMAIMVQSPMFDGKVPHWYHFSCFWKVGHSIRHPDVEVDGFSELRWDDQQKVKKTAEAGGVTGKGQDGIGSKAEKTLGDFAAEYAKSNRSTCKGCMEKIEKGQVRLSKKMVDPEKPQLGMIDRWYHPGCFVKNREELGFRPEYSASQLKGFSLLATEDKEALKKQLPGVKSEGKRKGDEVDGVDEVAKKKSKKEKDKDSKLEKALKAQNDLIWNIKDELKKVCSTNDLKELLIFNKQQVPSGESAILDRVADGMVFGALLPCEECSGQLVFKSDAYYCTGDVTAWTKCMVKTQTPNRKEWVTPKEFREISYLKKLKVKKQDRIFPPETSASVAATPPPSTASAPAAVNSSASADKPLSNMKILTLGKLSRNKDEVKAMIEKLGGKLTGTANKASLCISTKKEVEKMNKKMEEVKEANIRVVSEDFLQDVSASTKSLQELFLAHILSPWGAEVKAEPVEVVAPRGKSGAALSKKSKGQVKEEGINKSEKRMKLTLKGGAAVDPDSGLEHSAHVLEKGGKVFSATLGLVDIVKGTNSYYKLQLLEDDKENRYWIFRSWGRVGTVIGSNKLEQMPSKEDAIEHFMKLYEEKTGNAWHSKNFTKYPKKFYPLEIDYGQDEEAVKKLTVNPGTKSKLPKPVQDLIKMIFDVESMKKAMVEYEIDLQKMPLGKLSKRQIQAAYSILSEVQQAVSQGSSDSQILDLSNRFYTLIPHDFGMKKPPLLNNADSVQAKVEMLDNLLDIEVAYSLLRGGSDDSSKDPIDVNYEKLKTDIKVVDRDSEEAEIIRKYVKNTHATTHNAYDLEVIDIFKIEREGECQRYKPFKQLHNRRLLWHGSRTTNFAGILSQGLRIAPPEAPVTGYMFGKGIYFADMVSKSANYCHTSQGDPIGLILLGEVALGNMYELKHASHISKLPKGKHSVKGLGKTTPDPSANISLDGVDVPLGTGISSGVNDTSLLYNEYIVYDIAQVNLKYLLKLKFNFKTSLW

Target: mCherry-PARP1 (Homo sapiens) (UniProt P09874)
Test: condensation, fluorescence microscopy
Settings: 4 µM protein, longer dsDNA acts at lower DNA and higher salt; Condensation (DIC, PARP1 truncations): 20 mM Tris pH 7.5, 50 mM NaCl, 7.5 mM MgCl2, 1 mM DTT; DNA curtains: 25-150 mM NaCl tested; temperature not stated; recombinant protein; residues 1-1014; protein details: mCherry (pET-SUMO-mCherry-PARP1)

“GATGGTGGGGTCCGTTGATGTCAAGCATAGTCGAAAAAGGGTGCGGGACGACAACCCATG (double strand) [60 nt dsDNA]”: binds.
